Experimental data from US20080027139A1, “Use of Alpha-Ketoglutarate and Related Compounds” (priority 2004, published 2008).

Assay: Experiment II: body weight of rats on cholesterol and lard enriched fodder
Format: in vivo, rat
Details: day 120, cholesterol/lard diet, mean ± S.E.M

O=C(O)CCC(=O)C(=O)O [AKG, alpha-ketoglutaric acid]
Body weight of rats (female rats, AKG dose 0.1 from day 61 for 60 days): 355.6 ± 6.62 g | Body weight of rats (female rats, AKG dose 1.0 from day 61 for 60 days): 350.8 ± 9.7 g | Body weight of rats (male rats, AKG dose 0.1 from day 61 for 60 days): 519.2 ± 7.39^a g | Body weight of rats (male rats, AKG dose 1.0 from day 61 for 60 days): 462.1 ± 0.9^b g

No dose or concentration is given here for some results. Marks after values point to notes of the source that are not given here.
